{"source": "PubChem BioAssay AID330", "about": "(DTP/NCI, 2004)", "test_system": "P388 leukemia ip, CD2F1 mice, survival T/C", "experiment": "NCI In Vivo Anticancer Drug Screen. Data for tumor model P388 Leukemia (intraperitoneal) in CD2F1 (CDF1) mice", "settings": "T/C endpoint: median survival time, higher T/C = longer survival", "note": "The list does not hold the whole screen: it gathers tests that were run many times, whatever their T/C, doses with no T/C, and many T/C values between a quarter and a half above the control. Further doses and runs are listed elsewhere. T/C: endpoint of the treated group in % of that of the vehicle group. Some entries give survivors of the animals treated and no T/C: the source holds a T/C of zero for them, seemingly a mark for toxic or unscored doses. Some survivor counts are full or nearly so, which does not show that the dose was tolerated: the source hardly ever lists a survival T/C far under the control, and the zero likely stands for such cases as well. Counts of survivors are from the toxicity check (mostly the fifth day) where no day follows; animals may have died later. Schedules are NCI's codes, taken here to give the interval after Q, in days (D) or hours (H), and the number of doses after X. Some molecules as drawn cover several salts, stereoisomers or complexes of the source; a dose is that of the sample tested. For survival time, this PubChem deposit counts one and a half times the control or more as active, and values a quarter to a half above the control carry no call in these data; other NCI protocols may use other cut-offs. Some T/C values carry the count of animals alive at the toxicity check (mostly the fifth day); without a count, all were alive then. Some entries hold several experiments; their values stand side by side, smallest first. Marks such as (2×) stand for listed records that agree."}
{"compound": "COc1cc(NS(C)(=O)=O)ccc1Nc1c2ccccc2nc2ccccc12", "values": [{"measurement": "T/C", "setting": "dose: 0.25 mg/kg/injection, schedule: Q01DX009 (ip), vehicle: other", "result": "146 % of control"}, {"measurement": "T/C", "setting": "dose: 1.0 mg/kg/injection, schedule: Q01DX005 (ip), vehicle: other", "result": "143 and 145 % of control"}, {"measurement": "T/C", "setting": "dose: 1.0 mg/kg/injection, schedule: Q01DX009 (ip), vehicle: other", "result": "144 % of control"}, {"measurement": "T/C", "setting": "dose: 1.0 mg/kg/injection, schedule: Q04DX003 (ip), vehicle: other", "result": "132 and 138 % of control"}, {"measurement": "T/C", "setting": "dose: 1.25 mg/kg/injection, schedule: Q04DX003 (ip), vehicle: other", "result": "131 % of control"}, {"measurement": "T/C", "setting": "dose: 1.56 mg/kg/injection, schedule: Q04DX003 (ip), vehicle: other", "result": "143 and 145 % of control"}, {"measurement": "T/C", "setting": "dose: 2.0 mg/kg/injection, schedule: Q01DX005 (iv), vehicle: other", "result": "136 % of control"}, {"measurement": "T/C", "setting": "dose: 2.33 mg/kg/injection, schedule: Q01DX001 (ip), vehicle: other", "result": "134 % of control"}, {"measurement": "T/C", "setting": "dose: 2.5 mg/kg/injection, schedule: Q04DX002 (ip), vehicle: other, evaluated on day 30", "result": "135, 138, 139, 140, 141, 144, 145 (2×), 146, 147, 150 (3×), 151 (2×), 152, 153, 154, 157, 158, 159, 160 (4×), 168, 170 % of control"}, {"measurement": "T/C", "setting": "dose: 2.5 mg/kg/injection, schedule: Q04DX002 (ip), vehicle: other, evaluated on day 35", "result": "152 and 169 % of control"}, {"measurement": "T/C", "setting": "dose: 2.5 mg/kg/injection, schedule: Q04DX002 (ip), vehicle: other, evaluated on day 50", "result": "161 % of control"}, {"measurement": "T/C", "setting": "dose: 2.5 mg/kg/injection, schedule: Q04DX002 (ip), vehicle: saline with Tween-80", "result": "145, 153, 163, 166, 172 % of control"}, {"measurement": "T/C", "setting": "dose: 2.5 mg/kg/injection, schedule: Q04DX003 (ip), vehicle: other, evaluated on day 5", "result": "134 % of control"}, {"measurement": "T/C", "setting": "dose: 2.5 mg/kg/injection, schedule: Q04DX003 (ip), vehicle: other, evaluated on day 30", "result": "137 % of control"}, {"measurement": "T/C", "setting": "dose: 2.59 mg/kg/injection, schedule: Q04DX002 (ip), vehicle: other", "result": "154, 159, 161, 165 % of control"}, {"measurement": "T/C", "setting": "dose: 2.59 mg/kg/injection, schedule: Q04DX003 (ip), vehicle: other, evaluated on day 40", "result": "165 % of control"}, {"measurement": "T/C", "setting": "dose: 2.59 mg/kg/injection, schedule: Q04DX003 (ip), vehicle: other, evaluated on day 45", "result": "122, 136, 142, 147, 154, 155, 158, 160, 161, 170, 183 % of control"}, {"measurement": "T/C", "setting": "dose: 2.59 mg/kg/injection, schedule: Q04DX003 (ip), vehicle: other, evaluated on day 60", "result": "145 % of control"}, {"measurement": "T/C", "setting": "dose: 3.89 mg/kg/injection, schedule: Q01DX001 (ip), vehicle: other", "result": "136 % of control"}, {"measurement": "T/C", "setting": "dose: 4.0 mg/kg/injection, schedule: Q04DX003 (ip), vehicle: other", "result": "131 % of control"}, {"measurement": "T/C", "setting": "dose: 4.32 mg/kg/injection, schedule: Q04DX002 (ip), vehicle: other", "result": "158 (2×), 172, 175 % of control"}, {"measurement": "T/C", "setting": "dose: 4.32 mg/kg/injection, schedule: Q04DX003 (ip), vehicle: other, evaluated on day 40", "result": "184 % of control"}, {"measurement": "T/C", "setting": "dose: 4.32 mg/kg/injection, schedule: Q04DX003 (ip), vehicle: other, evaluated on day 45", "result": "147, 155, 156, 158, 162 (2×), 169, 170, 171 (2×), 193 % of control"}, {"measurement": "T/C", "setting": "dose: 4.32 mg/kg/injection, schedule: Q04DX003 (ip), vehicle: other, evaluated on day 60", "result": "167 % of control"}, {"measurement": "T/C", "setting": "dose: 5.0 mg/kg/injection, schedule: Q04DX002 (ip), vehicle: other, evaluated on day 30", "result": "151, 152, 153 [5 of 6 alive], 158, 160 (4×), 161 (2×), 162 (2×), 163, 164, 168, 169 (3×), 172 (2×), 173, 174, 175, 178, 180, 185, 218 % of control"}, {"measurement": "T/C", "setting": "dose: 5.0 mg/kg/injection, schedule: Q04DX002 (ip), vehicle: other, evaluated on day 35", "result": "161 and 189 % of control"}, {"measurement": "T/C", "setting": "dose: 5.0 mg/kg/injection, schedule: Q04DX002 (ip), vehicle: other, evaluated on day 50", "result": "174 % of control"}, {"measurement": "T/C", "setting": "dose: 5.0 mg/kg/injection, schedule: Q04DX002 (ip), vehicle: saline with Tween-80", "result": "155, 159, 163, 172, 183 % of control"}, {"measurement": "T/C", "setting": "dose: 6.48 mg/kg/injection, schedule: Q01DX001 (ip), vehicle: other", "result": "145 % of control"}, {"measurement": "survivor count", "setting": "dose: 6.67 mg/kg/injection, schedule: Q01DX009 (ip), vehicle: other", "result": "8 of 8"}, {"measurement": "T/C", "setting": "dose: 7.2 mg/kg/injection, schedule: Q04DX002 (ip), vehicle: other, evaluated on day 30", "result": "208 % of control"}, {"measurement": "T/C", "setting": "dose: 7.2 mg/kg/injection, schedule: Q04DX002 (ip), vehicle: other, evaluated on day 45", "result": "178, 186, 190, 204 % of control"}, {"measurement": "T/C", "setting": "dose: 7.2 mg/kg/injection, schedule: Q04DX003 (ip), vehicle: other, evaluated on day 40", "result": "194 % of control"}, {"measurement": "T/C", "setting": "dose: 7.2 mg/kg/injection, schedule: Q04DX003 (ip), vehicle: other, evaluated on day 45", "result": "165, 178, 179, 181, 186 [7 of 8 alive], 187, 188 (3×), 189, 236 % of control"}, {"measurement": "T/C", "setting": "dose: 7.2 mg/kg/injection, schedule: Q04DX003 (ip), vehicle: other, evaluated on day 60", "result": "168 % of control"}, {"measurement": "survivor count", "setting": "dose: 8.0 mg/kg/injection, schedule: Q01DX005 (ip), vehicle: other", "result": "6 of 6"}, {"measurement": "survivor count", "setting": "dose: 8.0 mg/kg/injection, schedule: Q01DX005 (iv), vehicle: other", "result": "6 of 6"}, {"measurement": "T/C", "setting": "dose: 8.0 mg/kg/injection, schedule: Q01DX005 (oral), vehicle: other", "result": "139 % of control"}, {"measurement": "T/C", "setting": "dose: 8.0 mg/kg/injection, schedule: Q04DX003 (oral), vehicle: other", "result": "126 % of control"}, {"measurement": "T/C", "setting": "dose: 9.0 mg/kg/injection, schedule: Q04DX003 (ip), vehicle: saline with Tween-80, evaluated on day 44", "result": "189 % of control"}, {"measurement": "T/C", "setting": "dose: 9.0 mg/kg/injection, schedule: Q04DX003 (ip), vehicle: saline with Tween-80, evaluated on day 45", "result": "152, 167, 171, 173 % of control"}, {"measurement": "T/C", "setting": "dose: 9.0 mg/kg/injection, schedule: Q04DX003 (ip), vehicle: saline with Tween-80, evaluated on day 60", "result": "166 and 194 % of control (2×)"}, {"measurement": "T/C", "setting": "dose: 10.0 mg/kg/injection, schedule: Q04DX002 (ip), vehicle: other, evaluated on day 30", "result": "163 [5 of 6 alive], 166, 167, 168, 174, 177 (2×), 178, 179, 180 (2×), 181, 182, 188, 190 (2×), 191, 195, 200, 201, 201 [5 of 6 alive], 203 (2×), 207, 208, 220, 222 % of control"}, {"measurement": "T/C", "setting": "dose: 10.0 mg/kg/injection, schedule: Q04DX002 (ip), vehicle: other, evaluated on day 35", "result": "189 and 213 % of control"}, {"measurement": "T/C", "setting": "dose: 10.0 mg/kg/injection, schedule: Q04DX002 (ip), vehicle: other, evaluated on day 50", "result": "207 % of control"}, {"measurement": "T/C", "setting": "dose: 10.0 mg/kg/injection, schedule: Q04DX002 (ip), vehicle: saline with Tween-80", "result": "163, 168, 175, 190, 201 % of control"}, {"measurement": "T/C", "setting": "dose: 10.0 mg/kg/injection, schedule: Q04DX003 (ip), vehicle: saline with Tween-80, evaluated on day 5", "result": "178 and 292 % of control"}, {"measurement": "T/C", "setting": "dose: 10.0 mg/kg/injection, schedule: Q04DX003 (ip), vehicle: saline with Tween-80, evaluated on day 7", "result": "166 % of control"}, {"measurement": "T/C", "setting": "dose: 10.0 mg/kg/injection, schedule: Q04DX003 (ip), vehicle: saline with Tween-80, evaluated on day 60", "result": "213, 214, 220 % of control"}, {"measurement": "T/C", "setting": "dose: 12.0 mg/kg/injection, schedule: Q04DX002 (ip), vehicle: other, evaluated on day 30", "result": "224 % of control"}, {"measurement": "T/C", "setting": "dose: 12.0 mg/kg/injection, schedule: Q04DX002 (ip), vehicle: other, evaluated on day 45", "result": "166 [7 of 8 alive], 188, 200 [7 of 8 alive], 215 % of control"}, {"measurement": "T/C", "setting": "dose: 12.0 mg/kg/injection, schedule: Q04DX003 (ip), vehicle: other, evaluated on day 40", "result": "240 % of control"}, {"measurement": "T/C", "setting": "dose: 12.0 mg/kg/injection, schedule: Q04DX003 (ip), vehicle: other, evaluated on day 45", "result": "196, 198 (2×), 200 (2×), 201, 209, 216, 226, 237, 269 % of control"}, {"measurement": "T/C", "setting": "dose: 12.0 mg/kg/injection, schedule: Q04DX003 (ip), vehicle: other, evaluated on day 60", "result": "203 % of control"}, {"measurement": "T/C", "setting": "dose: 12.0 mg/kg/injection, schedule: Q04DX003 (ip), vehicle: saline with Tween-80, evaluated on day 5", "result": "191 and 264 % of control"}, {"measurement": "T/C", "setting": "dose: 12.0 mg/kg/injection, schedule: Q04DX003 (ip), vehicle: saline with Tween-80, evaluated on day 30", "result": "218 % of control"}]}
